Reference: PubChem BioAssay AID1159578 (Peter MacCallum Cancer Centre, 2015)
In all, the deposit lists about 18,000 reagents; shown is a part drawn at random. Over the whole deposit, about 1,030 (5.7%) were called active. 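Inactive calls also include pools with fewer than 3300 nuclei, whose migration was not assessed.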 Raw values are not corrected between plates. No sequences are given here.

Assay: 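Genome-wide hunt for genes controlling movement of lymphatic endothelial cells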 (primary screen)
Cell system: human lymphatic endothelial cells
Reagents: siRNA pool against human genes, 40 nM
Timing: 48 h after transfection
Measurement: 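High-content imaging of dye-stained cells in a scratch assay measures filled wound area and nuclei per well; duplicate means given as ratio to mock and robust z-score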
Reading the numbers: migration robust z-score: higher = faster migration into the scratch; migration relative to mock: higher = more scratch area covered than mock; nuclei per well: higher = more cells in the well
Rule for the call: 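Migration changed when robust z exceeds 2 or falls below -2 and mean nuclei number is at least 3300; otherwise not called changed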
Meaning of the calls: active = migration changed; inactive = no migration change, or too few cells

gene | PubChem SID | migration robust z-score | migration class with cell-count check | migration relative to mock | nuclei per well, duplicate mean | Outcome
UBR1 (ubiquitin protein ligase E3 component n-recognin 1) | SID255363986 | -1.58 | migration z between -2 and 2; enough cells | 0.5 | 4684 | inactive
CAPN5 (calpain 5) | SID255348612 | -2.08 | migration z below -2; enough cells | 0.4 | 5272 | active
BMP3 (bone morphogenetic protein 3) | SID255348555 | -0.36 | migration z between -2 and 2; enough cells | 0.74 | 6116 | inactive
C10orf62 (chromosome 10 open reading frame 62) | SID255365861 | -1.43 | migration z between -2 and 2; enough cells | 0.52 | 5079 | inactive
GATD3 (glutamine amidotransferase class 1 domain containing 3) | SID255353422 | -2.73 | migration z below -2; enough cells | 0.18 | 6178 | active
SCCPDH (saccharopine dehydrogenase (putative)) | SID255357472 | 0.88 | migration z between -2 and 2; enough cells | 1.12 | 5686 | inactive
CASZ1 (castor zinc finger 1) | SID255358252 | -1.07 | migration z between -2 and 2; enough cells | 0.61 | 6105 | inactive
GUCY1B1 (guanylate cyclase 1 soluble subunit beta 1) | SID255350105 | -1.71 | migration z between -2 and 2; enough cells | 0.48 | 4704 | inactive
DDX52 (DExD-box helicase 52) | SID255355555 | 1.19 | migration z between -2 and 2; enough cells | 1.04 | 6199 | inactive
CRAT (carnitine O-acetyltransferase) | SID255349075 | 0.32 | migration z between -2 and 2; enough cells | 0.86 | 3824 | inactive
ST8SIA4 (ST8 alpha-N-acetyl-neuraminide alpha-2,8-sialyltransferase 4) | SID255353332 | -0.1 | migration z between -2 and 2; enough cells | 0.78 | 6716 | inactive
RASD2 (RASD family member 2) | SID255356323 | -0.86 | migration z between -2 and 2; enough cells | 0.66 | 4174 | inactive
OASL (2'-5'-oligoadenylate synthetase like) | SID255353698 | -0.76 | migration z between -2 and 2; enough cells | 0.66 | 5064 | inactive
UCP2 (uncoupling protein 2) | SID255353051 | 0.7 | migration z between -2 and 2; enough cells | 0.94 | 4818 | inactive
PARD6B (par-6 family cell polarity regulator beta) | SID255361417 | -0.85 | migration z between -2 and 2; enough cells | 0.66 | 4486 | inactive
TOR3A (torsin family 3 member A) | SID255359877 | -0.08 | migration z between -2 and 2; enough cells | 0.79 | 4167 | inactive
RTP4 (receptor transporter protein 4) | SID255359833 | 1.68 | migration z between -2 and 2; enough cells | 1.32 | 5793 | inactive
GCSAML (germinal center associated signaling and motility like) | SID255363396 | 0.41 | migration z between -2 and 2; enough cells | 1 | 4570 | inactive
TMEM63A (transmembrane protein 63A) | SID255354502 | 1.67 | migration z between -2 and 2; enough cells | 1.31 | 5008 | inactive
FAM163A (family with sequence similarity 163 member A) | SID255363392 | 0.84 | migration z between -2 and 2; enough cells | 1.1 | 6442 | inactive
CARD17P (caspase recruitment domain family member 17, pseudogene) | SID255365887 | -0.47 | migration z between -2 and 2; enough cells | 0.76 | 7448 | inactive
GSDME (gasdermin E) | SID255349291 | -0.04 | migration z between -2 and 2; enough cells | 0.88 | 6905 | inactive
G6PC2 (glucose-6-phosphatase catalytic subunit 2) | SID255359599 | 0.54 | migration z between -2 and 2; enough cells | 0.91 | 6118 | inactive
MIEN1 (migration and invasion enhancer 1) | SID255361312 | -1.18 | migration z between -2 and 2; enough cells | 0.58 | 3716 | inactive
NIP7 (nucleolar pre-rRNA processing protein NIP7) | SID255357695 | -0.1 | migration z between -2 and 2; enough cells | 0.86 | 6158 | inactive
FCGR2B (Fc gamma receptor IIb) | SID255349647 | 1.66 | migration z between -2 and 2; enough cells | 1.12 | 4825 | inactive
ADRM1 (ADRM1 26S proteasome ubiquitin receptor) | SID255355550 | -0.3 | migration z between -2 and 2; enough cells | 0.81 | 6106 | inactive
KCNC3 (potassium voltage-gated channel subfamily C member 3) | SID255350596 | -0.62 | migration z between -2 and 2; enough cells | 0.68 | 5882 | inactive
SNRPB2 (small nuclear ribonucleoprotein polypeptide B2) | SID255352549 | -0.88 | migration z between -2 and 2; enough cells | 0.66 | 5520 | inactive
TMEM91 (transmembrane protein 91) | SID255366066 | 1.17 | migration z between -2 and 2; enough cells | 1.19 | 5008 | inactive
SOD2 (superoxide dismutase 2) | SID255352565 | 0.13 | migration z between -2 and 2; enough cells | 0.83 | 5342 | inactive
IGFL3 (IGF like family member 3) | SID255365498 | -1.36 | migration z between -2 and 2; enough cells | 0.52 | 4654 | inactive
ZNF439 (zinc finger protein 439) | SID255361845 | 0.24 | migration z between -2 and 2; enough cells | 0.94 | 5622 | inactive
L3MBTL2 (L3MBTL histone methyl-lysine binding protein 2) | SID255361085 | 1.33 | migration z between -2 and 2; enough cells | 1.06 | 6554 | inactive
LANCL2 (LanC like glutathione S-transferase 2) | SID255358954 | -0.01 | migration z between -2 and 2; enough cells | 0.88 | 5309 | inactive
SLC35A1 | SID255355179 | -1.15 | migration z between -2 and 2; enough cells | 0.58 | 3374 | inactive
TESK2 (testis associated actin remodelling kinase 2) | SID255355062 | -2 | migration z between -2 and 2; enough cells | 0.42 | 3795 | inactive
GEMIN2 (gem nuclear organelle associated protein 2) | SID255353586 | 1.8 | migration z between -2 and 2; enough cells | 1.35 | 5832 | inactive
KLRC1 (killer cell lectin like receptor C1) | SID255350657 | 0.21 | migration z between -2 and 2; enough cells | 0.94 | 4576 | inactive

Part of the list above, set out differently:
NIP7 (nucleolar pre-rRNA processing protein NIP7) [SID255357695]
- migration robust z-score: -0.1
- migration class with cell-count check: migration z between -2 and 2; enough cells
- migration relative to mock: 0.86
- nuclei per well, duplicate mean: 6158
- Outcome: inactive

FCGR2B (Fc gamma receptor IIb) [SID255349647]
- migration robust z-score: 1.66
- migration class with cell-count check: migration z between -2 and 2; enough cells
- migration relative to mock: 1.12
- nuclei per well, duplicate mean: 4825
- Outcome: inactive

ADRM1 (ADRM1 26S proteasome ubiquitin receptor) [SID255355550]
- migration robust z-score: -0.3
- migration class with cell-count check: migration z between -2 and 2; enough cells
- migration relative to mock: 0.81
- nuclei per well, duplicate mean: 6106
- Outcome: inactive

KCNC3 (potassium voltage-gated channel subfamily C member 3) [SID255350596]
- migration robust z-score: -0.62
- migration class with cell-count check: migration z between -2 and 2; enough cells
- migration relative to mock: 0.68
- nuclei per well, duplicate mean: 5882
- Outcome: inactive

SNRPB2 (small nuclear ribonucleoprotein polypeptide B2) [SID255352549]
- migration robust z-score: -0.88
- migration class with cell-count check: migration z between -2 and 2; enough cells
- migration relative to mock: 0.66
- nuclei per well, duplicate mean: 5520
- Outcome: inactive
